Assay results reported in PMC10580935.

Biological target: T1, Zur (Mycobacterium bovis BCG) (UniProt P9WN85)
T1 sequence (looked up): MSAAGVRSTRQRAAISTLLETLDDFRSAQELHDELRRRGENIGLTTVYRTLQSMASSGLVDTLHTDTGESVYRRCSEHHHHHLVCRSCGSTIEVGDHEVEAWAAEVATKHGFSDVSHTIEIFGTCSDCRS
Experiment: EMSA
Details: 20 mM Tris-HCl pH 8.0, 1 mM DTT, 50 mM KCl, 5 mM MgCl2, 0.05 mg/mL BSA, 10% glycerol, recombinant protein, residues 1-130, probe letters rebuilt from the primers and the genome

“ACTGGCTAAATCCGTTGCCGCTGCCGCGATAACCTCTGGCGCCGCAATCACAAACGACATCTGACACCTCCCAATACGCATGACCGCTCTGTCATGCCGACCCGGGGAACGTCACCAGCAAAAATCGGCGGGCTACAGAATAACTCCGGCCCGGGAAAGGGATTTGGTATTTCCCAAAATATCTCCCACATTTATGCGGTCGGCGCGTCGGCCGACGGGAGCTGGCAGCACCCGTGGGCCGGCGCCGAGCGTTCGCTGGTGTCCGGCTGGGACTTGCATTGCGGCGCGCCGTGGTGTGGAATAGTGGTAATGAAAATCATGTTCATCAGTCCTCTGTGGTGTTTACGGCT (double strand) [esx-3p1]”: binds; binds (no added zinc).

Tags and fusion partners may be left off the protein sequences shown.
